Earlier results as cited in US11873320B2 (REATA PHARMACEUTICALS HOLDINGS, LLC, priority 2013, dated 2024).
At least one structure is not confirmed: it was looked up by name or label, or the drawing left a doubt.

Tested on: diabetic mice
Details: cited from earlier work

COC(=O)[C@]12CCC(C)(C)C[C@H]1[C@H]1C(=O)C=C3[C@@]4(C)C=C(C#N)C(=O)C(C)(C)[C@@H]4CC[C@@]3(C)[C@]1(C)CC2 [bardoxolone methyl]
muscle-specific insulin-stimulated glucose uptake: increases muscle-specific insulin-stimulated glucose uptake
